Results are given in words; binding and its absence hold for the method and conditions named. Binding seen in cells or lysates may run through a third protein. Some results given as binding are weak or reduced against the parent protein; the word gives no strength. Values belong to the binder of their own block, whether it stands above or below them.
Legend:
[1] = biological target: T1, β-catenin (human (endogenous in HMVECs)), P35222; test: co-IP; endogenous proteins of confluent, serum-starved HMVECs, with or without imatinib (10 μM, 1 h) and VEGF (100 ng/mL, 5 or 15 min); NP-40 lysis buffer (50 mM Tris-HCl pH 8.0, 150 mM NaCl, 1% NP-40); 300 μg pre-cleared lysate with VE-cadherin or β-catenin antibody overnight at 4°C, Protein G Sepharose; Western blot; details: remark: other sources report otherwise
T1 chain: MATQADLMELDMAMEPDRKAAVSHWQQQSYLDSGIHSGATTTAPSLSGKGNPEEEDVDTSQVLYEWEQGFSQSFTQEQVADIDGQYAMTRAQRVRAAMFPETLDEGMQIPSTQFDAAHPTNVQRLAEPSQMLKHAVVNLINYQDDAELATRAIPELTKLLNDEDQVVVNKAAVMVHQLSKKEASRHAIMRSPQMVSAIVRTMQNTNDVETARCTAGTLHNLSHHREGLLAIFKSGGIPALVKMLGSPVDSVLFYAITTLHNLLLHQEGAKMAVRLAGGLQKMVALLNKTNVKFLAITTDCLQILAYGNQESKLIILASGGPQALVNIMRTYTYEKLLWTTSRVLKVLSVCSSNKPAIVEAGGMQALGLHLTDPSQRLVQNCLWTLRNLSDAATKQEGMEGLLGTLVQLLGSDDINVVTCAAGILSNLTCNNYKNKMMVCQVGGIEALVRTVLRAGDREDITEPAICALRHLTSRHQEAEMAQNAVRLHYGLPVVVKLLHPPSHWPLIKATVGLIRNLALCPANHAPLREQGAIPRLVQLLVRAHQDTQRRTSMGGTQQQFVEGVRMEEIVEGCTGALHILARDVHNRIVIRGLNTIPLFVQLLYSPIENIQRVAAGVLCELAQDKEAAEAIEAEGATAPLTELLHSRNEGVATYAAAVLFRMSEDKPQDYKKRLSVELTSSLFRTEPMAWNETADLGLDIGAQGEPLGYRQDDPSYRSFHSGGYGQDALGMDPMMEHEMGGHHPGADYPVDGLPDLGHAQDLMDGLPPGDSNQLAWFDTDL

[2] = biological target: T2, vascular endothelial cadherin (VE-cadherin) (human (endogenous in HMVECs)), P33151; test: as above; details: remark: other sources report otherwise
T2 chain: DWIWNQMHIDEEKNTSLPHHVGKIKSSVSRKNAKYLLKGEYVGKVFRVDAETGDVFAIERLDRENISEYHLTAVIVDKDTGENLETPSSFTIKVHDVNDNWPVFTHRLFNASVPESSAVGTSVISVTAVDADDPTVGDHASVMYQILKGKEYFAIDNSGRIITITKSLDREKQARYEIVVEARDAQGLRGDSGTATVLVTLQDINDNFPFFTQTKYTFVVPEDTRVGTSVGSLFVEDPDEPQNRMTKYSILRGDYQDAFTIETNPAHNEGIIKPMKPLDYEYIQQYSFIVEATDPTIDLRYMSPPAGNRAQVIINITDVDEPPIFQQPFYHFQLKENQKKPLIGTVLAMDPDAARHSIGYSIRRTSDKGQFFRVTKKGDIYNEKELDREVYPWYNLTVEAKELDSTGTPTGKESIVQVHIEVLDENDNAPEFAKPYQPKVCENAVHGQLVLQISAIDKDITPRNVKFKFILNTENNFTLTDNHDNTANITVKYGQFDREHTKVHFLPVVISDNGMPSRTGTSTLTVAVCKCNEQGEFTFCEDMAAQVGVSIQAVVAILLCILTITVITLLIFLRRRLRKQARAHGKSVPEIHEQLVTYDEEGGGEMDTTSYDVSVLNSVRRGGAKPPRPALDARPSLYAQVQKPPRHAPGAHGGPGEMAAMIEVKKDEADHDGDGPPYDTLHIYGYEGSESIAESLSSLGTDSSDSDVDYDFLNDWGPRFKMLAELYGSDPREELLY

- binding [1]: binds
B1: vascular endothelial cadherin (VE-cadherin), P33151 48-784 (protein)
chain: T2 chain

- binding [2]: binds
B2: β-catenin, P35222 1-781 (protein)
chain: T1 chain

— publication PMC3868616
